# Results: patent US9359373B1, “Lipophilic N-substituted norcantharimide derivatives and uses thereof” (priority 2014, dated 2016)
# Some entries share one result that the patent states for a list of compounds.
# System: L1210 cells
# Experiment: Syngeneic L1210 tumor in vivo therapy
# Parameters: species or system DBA/2 mice
# Settings: IP-inoculated tumors, 18 mg/kg i.p. daily, FIG. 8B
# Protocol: The DBA/2 mice (about 7 weeks old, 18-22 g) were obtained from BioLASCO Taiwan Co., Ltd. All mice were housed in specific pathogen-free condition with ad libitum access to water and laboratory chow. A solution of L1210 cells was injected into the subcutaneous tissue to establish a syngeneic tumor. Alternatively, the L1210 cells was injected peritoneally. All animal experiments were performed in accordance with the guidelines of the Animal Welfare Committee of Taipei Veterans General Hospital (Taiwan, R.O.C.).
# To inoculate tumor, L1210 cells (1×10^6 cells per injection) were injected either subcutaneously or intraperitoneally to lab animals to generate tumors on day 1. […] The average body weight (BW) of the animals was measured daily.
# After treatment, mice were sacrificed, and their tumors, livers and spleens were harvested and weighted, respectively; and white blood cells (WBC) counts were also measured.
# Mice were inoculated with L1210 tumor cells in accordance with the procedures described in the section of “Materials and Methods.” For in vivo therapy, animals were given 18 mg/Kg NOC15 or NC15 by intra-peritoneal route, for a period of at least 7 days. Tumor size, animal body weight, respective weights of liver and spleen, as well as the white blood cell count of each animal were then measured respectively at the indicated time. […]
row,Compound,increase in life span
1,"CC(C)=CCCC(C)=CCCC(C)=CCON1C(=O)C2C3CCC(O3)C2C1=O (centres unmarked) [Compound 9, N-farnesyloxy-7-oxabicyclo[2.2.1]heptane-2,3-dicarboximide]",14-18%
2,"CC(C)=CCCC(C)=CCCC(C)=CCN1C(=O)C2C3CCC(O3)C2C1=O (centres unmarked) [Compound 18, N-farnesyl-7-oxabicyclo[2.2.1]heptane-2,3-dicarboximide]",14-18%
